Results on 2 molecules are retold here after publication PMC3418687.

The chains behind the UniProt entries cited, without tags or fusion partners. Residues count along the entry.
UniProt P01009, residues 25-418: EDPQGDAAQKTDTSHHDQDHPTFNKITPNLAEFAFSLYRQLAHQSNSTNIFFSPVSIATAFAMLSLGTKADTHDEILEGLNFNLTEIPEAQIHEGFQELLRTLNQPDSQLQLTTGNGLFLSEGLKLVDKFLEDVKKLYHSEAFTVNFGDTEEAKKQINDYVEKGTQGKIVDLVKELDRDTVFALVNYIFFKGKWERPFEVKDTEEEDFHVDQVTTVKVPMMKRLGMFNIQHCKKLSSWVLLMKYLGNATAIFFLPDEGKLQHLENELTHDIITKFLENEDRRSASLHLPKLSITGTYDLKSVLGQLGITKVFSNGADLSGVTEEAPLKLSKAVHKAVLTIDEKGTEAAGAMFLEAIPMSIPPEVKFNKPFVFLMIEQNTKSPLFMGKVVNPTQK

Assay [1] addresses T1, Cathepsin G (CG) purified from human neutrophils (human) (UniProt P08311).
T1 sequence: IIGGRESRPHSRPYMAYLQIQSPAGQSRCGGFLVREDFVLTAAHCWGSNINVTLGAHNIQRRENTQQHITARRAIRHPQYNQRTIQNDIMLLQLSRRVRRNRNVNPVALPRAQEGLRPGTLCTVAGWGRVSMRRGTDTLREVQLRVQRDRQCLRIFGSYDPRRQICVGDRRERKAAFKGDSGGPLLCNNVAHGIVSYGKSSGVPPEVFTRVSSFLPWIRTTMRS
Description: covalent complex seen as a heavier band by SDS-PAGE and western blot; CG (1.67 pmol) incubated with AT (90.9 pmol) or ACT (1.5 pmol) in RPMI 1640 medium containing 1% BSA for 10 min at 4°C; western blot with anti-CG antibody; both purified. (In western blotting, separated proteins are transferred to a membrane and probed.)

Assay [2] has as its target T1, Cathepsin G (CG) purified from human neutrophils (human). Description: condition: only CG pretreated with chymostatin (661 pmol); covalent complex seen as a heavier band by SDS-PAGE and western blot; as a1, but CG pretreated with chymostatin (661 pmol) before AT or ACT; western blot with anti-CG antibody; both purified.

These are yes or no findings as the source states them, for the method shown. Some results given as binding are weak or reduced against the parent protein; the word gives no strength.

As to “α1-antitrypsin (AT) (from UniProt P01009 25-418)”, the binding result was “binds” in assay [1] and “no binding” in assay [2].

B1: α1-antichymotrypsin (ACT) (protein, UniProt P01011 24-423)
chain: HPNSPLDEENLTQENQDRGTHVDLGLASANVDFAFSLYKQLVLKAPDKNVIFSPLSISTALAFLSLGAHNTTLTEILKGLKFNLTETSEAEIHQSFQHLLRTLNQSSDELQLSMGNAMFVKEQLSLLDRFTEDAKRLYGSEAFATDFQDSAAAKKLINDYVKNGTRGKITDLIKDLDSQTMMVLVNYIFFKAKWEMPFDPQDTHQSRFYLSKKKWVMVPMMSLHHLTIPYFRDEELSCTVVELKYTGNASALFILPDQDKMEEVEAMLLPETLKRWRDSLEFREIGELYLPKFSISRDYNLNDILLQLGIEEAFTSKADLSGITGARNLAVSQVVHKAVLDVFEEGTEASAATAVKITLLSALVETRTIVRFNRPFLMIIVPTDTQNIFFMSKVTNPKQA
For the molecule B1, the binding entry in assay [1] was “binds”; in assay [2], “no binding”.
